Among the data in article PMC10671598 are binding values, retold here.

Results are given in words; binding and its absence hold for the method and conditions named. Binding seen in cells or lysates may run through a third protein. Binding calls can cover weak binding; strength is not graded here. Sequences can lack the tags named with a protein.

For this assay, the target named is T1, RNF138-Flag (human) (UniProt Q8WVD3).
T1 sequence: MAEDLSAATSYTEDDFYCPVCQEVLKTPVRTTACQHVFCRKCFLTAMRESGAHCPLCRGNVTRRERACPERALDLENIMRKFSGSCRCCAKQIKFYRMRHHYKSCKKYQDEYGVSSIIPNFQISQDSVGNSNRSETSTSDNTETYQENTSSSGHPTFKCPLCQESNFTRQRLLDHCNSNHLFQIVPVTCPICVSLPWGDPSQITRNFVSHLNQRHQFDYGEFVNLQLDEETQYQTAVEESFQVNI
In words: co-IP; HEK293T transfected with the indicated plasmids for 24 h; lysis buffer 20 mM Tris pH 7.5, 150 mM NaCl, 1% Triton X-100, 1 mM EDTA; Flag beads or the indicated antibody with protein A/G agarose, 4 °C overnight; immunoblot; for PTEN-IRF3 also with myc-RNF138 co-expressed or in RNF138-KO cells.

As to IAD domain of IRF3 (domain or fragment), the binding entry is given as “binds”.
